{"source": "PubChem BioAssay AID1224830 | NIAID, 2016", "aim": "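Host factors that control LPS-induced TNF expression in human macrophages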 (primary screen)", "cells": "human THP-1 monocytic leukaemia cells, TNF dual-luciferase reporter clone, PMA-differentiated to macrophage-like cells", "knock-down reagent": "siRNA pool against human genes, 50 nM", "timing": "LPS for 4 h, given about 3 days after siRNA transfection", "conditions": "bacterial LPS (TLR4 ligand), 10 ng/ml", "detection": "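Ratio of firefly to renilla light, scaled to the plate median and expressed as a robust z-score per replicate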", "direction": "TNF reporter robust z-score: higher = stronger TNF reporter response to LPS", "hit rule": "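Each well counts as active if its z-score is over 2.8 or under -1.5; controls are left without a call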", "note": "The whole screen tested about 18,000 reagents; shown is a random part of them. Of all reagents, about 2,900 (16%) are marked active. 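Calls are made per well; low scores hint the gene aids the LPS response, high scores that it dampens it.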 Repeated entries: four replicate wells of each siRNA pool."}
{"target gene": "RPL31", "TNF reporter robust z-score": -1.36, "activity call": "inactive"}
{"target gene": "RPL31", "TNF reporter robust z-score": -0.53, "activity call": "inactive"}
{"target gene": "RPL31", "TNF reporter robust z-score": -1.53, "activity call": "active"}
{"target gene": "RPL31", "TNF reporter robust z-score": -1.28, "activity call": "inactive"}
{"target gene": "NXPH4", "TNF reporter robust z-score": -0.94, "activity call": "inactive"}
{"target gene": "NXPH4", "TNF reporter robust z-score": -0.5, "activity call": "inactive"}
{"target gene": "NXPH4", "TNF reporter robust z-score": -0.48, "activity call": "inactive"}
{"target gene": "NXPH4", "TNF reporter robust z-score": 0.86, "activity call": "inactive"}
{"target gene": "KRT28", "TNF reporter robust z-score": 0.64, "activity call": "inactive"}
{"target gene": "KRT28", "TNF reporter robust z-score": 0.06, "activity call": "inactive"}
{"target gene": "KRT28", "TNF reporter robust z-score": -0.2, "activity call": "inactive"}
{"target gene": "KRT28", "TNF reporter robust z-score": -0.59, "activity call": "inactive"}
{"target gene": "TMX2", "TNF reporter robust z-score": 3.08, "activity call": "active"}
{"target gene": "TMX2", "TNF reporter robust z-score": 2.41, "activity call": "inactive"}
{"target gene": "TMX2", "TNF reporter robust z-score": 1.04, "activity call": "inactive"}
{"target gene": "TMX2", "TNF reporter robust z-score": 1.83, "activity call": "inactive"}
{"target gene": "HSPB2", "TNF reporter robust z-score": -1.11, "activity call": "inactive"}
{"target gene": "HSPB2", "TNF reporter robust z-score": -0.9, "activity call": "inactive"}
{"target gene": "HSPB2", "TNF reporter robust z-score": -0.54, "activity call": "inactive"}
{"target gene": "HSPB2", "TNF reporter robust z-score": -0.33, "activity call": "inactive"}

2 entries from above in another layout:
target gene	TNF reporter robust z-score	activity call
HSPB2	-0.54	inactive
HSPB2	-0.33	inactive
